Source: ChEMBL document CHEMBL3988442, “University of Dundee, Small-Polar-MMV Screening Library” (2021).

The chains behind the UniProt entries cited, without tags or fusion partners.
UniProt E9BF75, entry or part of it: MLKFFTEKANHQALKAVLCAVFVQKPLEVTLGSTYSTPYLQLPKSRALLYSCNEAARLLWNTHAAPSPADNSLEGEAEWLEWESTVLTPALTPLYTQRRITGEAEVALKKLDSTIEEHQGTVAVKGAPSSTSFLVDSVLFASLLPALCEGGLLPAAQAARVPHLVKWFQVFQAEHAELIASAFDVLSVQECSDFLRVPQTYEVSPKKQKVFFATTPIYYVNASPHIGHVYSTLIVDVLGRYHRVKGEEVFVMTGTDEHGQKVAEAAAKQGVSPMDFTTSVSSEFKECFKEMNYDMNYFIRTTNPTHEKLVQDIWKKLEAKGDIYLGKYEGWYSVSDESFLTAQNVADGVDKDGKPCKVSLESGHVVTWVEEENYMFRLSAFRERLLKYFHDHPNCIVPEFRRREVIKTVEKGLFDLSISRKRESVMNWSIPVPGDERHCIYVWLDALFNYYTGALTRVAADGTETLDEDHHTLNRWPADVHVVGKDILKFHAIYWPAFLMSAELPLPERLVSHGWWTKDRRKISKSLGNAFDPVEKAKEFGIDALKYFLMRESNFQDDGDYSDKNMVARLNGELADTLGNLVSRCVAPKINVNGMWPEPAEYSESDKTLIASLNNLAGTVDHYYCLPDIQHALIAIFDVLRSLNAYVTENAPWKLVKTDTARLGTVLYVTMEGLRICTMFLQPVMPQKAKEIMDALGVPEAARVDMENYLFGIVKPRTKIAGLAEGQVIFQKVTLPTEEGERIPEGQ

A: 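Assay on Mycobacterium tuberculosis, filed only as a heat shock assay from Cornell; the read-out is not stated. The concentration is filed as 10 mM, unlikely as a test dose, so the dose is not known. Higher reads as stronger inhibition (inferred: compounds with an IC50 in retests scored well above the rest). Of about 69,000 compounds tested this way, about 930 (1.4%) reached 50% or more in at least one test.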
B: 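Whole-cell assay for inhibitors of Mycobacterium tuberculosis growth, labelled Cornell in the record; the read-out is not stated. The concentration is filed as 10 mM, unlikely as a test dose, so the dose is not known. Higher means stronger inhibition (inferred from two other growth screens of the library). Of about 53,000 compounds tested this way, about 900 (1.7%) reached 50% or more in at least one test.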
C: 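Methionyl-tRNA synthetase (putative), Leishmania donovani (UniProt E9BF75). Primary screen of methionyl-tRNA synthetase; the read-out is not stated. The test concentration is not given. Values are per cent inhibition. Size under these conditions: about 68,000 compounds, about 24 of them at 50% or above in at least one test.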

All values are in %. The record does not define 0% and 100%; most values in the screen are far below 50% and negative numbers occur (in some assays of this library far below -100). Compounds were drawn at random from those tested, without regard to their results. A dash means the value is not listed here; it may have been measured.

With CC(C)N(C)Cc1nnn2c1CN(Cc1cccnc1)CCC2 the screen gave C: 8.383%. Cn1cc(C[C@H]2[C@H](O)CCN2Cc2ccncc2)cn1 read C: 13.93%. CCc1cccc(OCCN(C)C(=O)c2ccccc2NCC(=O)O)c1 read A: -9.474%; B: 10.74%; C: 11.2%. Result for Cn1cccc1CN1CCC2(CC1)CC(Oc1cccnc1)C2.O=C(O)C(F)(F)F.O=C(O)C(F)(F)F was A: -29.66%; B: 21.76%. For COc1ccc(/C=C/CN2C[C@H]3CC[C@@H]2CN(S(=O)(=O)N(C)C)C3)cc1 the result was C: 12.03%.

N#Cc1cccnc1OC1CCN(C(=O)NCc2ccccc2)CC1 read A: 1.642%; B: 16.3%; C: 7.971%. O=C(c1cccnc1SCc1ccccc1)N1CC[C@@H](O)C1 read A: 7.782%; B: -37.87%; C: -0.2778%. For CCc1nc(C(=O)N2CCCC2)nn1-c1ccccc1Cl the result was A: -1.819%; B: 19.44%; C: 11.81%. For CCS(=O)(=O)N1CCN(CCn2cccn2)c2nc(C)ccc2C1.O=C(O)C(F)(F)F the result was A: -24.74%. For COc1ccc(NC(=O)Cn2nc(C)c(C)cc2=O)cc1 the result was A: 2.037%; B: -2.402%; C: 4.682%.

COc1ccc(NC(=O)C(c2ccc(OC)cc2)N2CCOCC2)cc1 (centres unmarked) read A: 20.91%; B: -0.3618%; C: 1.69%. For CC(C)C(C)N(C(=O)c1cc2c([nH]c1=O)CCCC2=O)C1CC1 (centres unmarked) the result was A: -10.91%; B: 24.35%; C: 17.87%. N#Cc1c(CN2CCCC2Cn2cccn2)cn2ccccc12 (centres unmarked) read A: 11.27%; B: 22.79%; C: 6.469%. CCC(C)NC(=O)c1ccc(CNC(=O)CCC(C)C)cc1 (centres unmarked) gave A: 26.7%; B: -30.92%; C: 5.301%. COCCN1CC(c2cc(O)nc(NC(C)C)n2)CC1=O (centres unmarked) gave A: -12.21%; B: -10.14%; C: 20%.

O=C(CCNC(=O)N1CCC(c2ccccc2)C1)N1CCCCC1 (centres unmarked) read A: -13.23%; C: 10.66%. With CC(C)CC(NC(=O)c1cccc(F)c1F)C(=O)Nc1cc[nH]n1 (centres unmarked) the screen gave A: 9.189%; B: 29.25%; C: 1.489%. Cc1ccc(CC(=O)NC(C)C(=O)N2CCS(=O)(=O)CC2)s1 (centres unmarked) gave A: 5.463%; B: 63.58%; C: 6.522%. With Cn1c(=O)[nH]c(=O)c2cc(C(=O)N3CCCC3C3CCCC3)cnc21 (centres unmarked) the screen gave A: -21.41%; C: 0.8357%. Result for CC(NC(=O)COc1nc(C(C)(C)C)no1)c1ccco1 (centres unmarked) was A: -2.935%; C: 13.41%.

CNc1nc(C)c(C(=O)N2CCCCC2CCc2ccccc2)s1 (centres unmarked) gave A: -1.791%; B: 8.384%; C: 16.85%. Result for N#Cc1cc(Br)ccc1NC1CCN(CC(N)=O)CC1 was A: -21.9%; B: -11.45%; C: 13.59%. Result for CCCc1nn(Cc2csc(CC)n2)c(=O)o1 was A: 35.42%; B: -1.105%; C: 8.992%. For CN1CCCN(C[C@@H]2CN(C(=O)CCc3cn[nH]c3)C[C@@H]2CO)CC1 the result was A: -23.45%; C: 1.067%. Result for Cc1nnc2n1CCN(C(=O)c1cc3cc(F)ccc3[nH]1)C2 was A: -15.4%; B: -4.479%; C: 15.1%.

With CNC(=O)CCOC(=O)c1cccc(-n2cccn2)c1 the screen gave A: -5.228%; C: 18.12%. For Cc1ccnc(NC(=O)c2cncc(C3CCNCC3)n2)c1 the result was A: 14.45%; B: 9.897%; C: 11.55%. c1cnn(C2CN(c3ncnc4[nH]ccc34)C2)c1 gave A: -24.46%; B: 16.09%; C: 14.73%. With COCCN(Cc1ccoc1)C(=O)c1ccccc1Cl the screen gave A: -10.51%; B: 23.35%; C: 10.78%. With Cc1ccc(C(=O)N2CCCC3(C2)C(=O)N(C)c2ccccc23)c(=O)[nH]1 (centres unmarked) the screen gave A: 6.792%; B: 23.57%; C: 16.8%.

c1cnc(N2CCCC3(CCN(Cc4ccsc4)C3)C2)nc1 (centres unmarked) read A: -21.68%; B: 38.87%; C: 8.667%. COC(=O)c1cnc(C(=O)N(c2ccc(OC)c(F)c2)C(C)C)cn1 gave A: 15.37%; B: 77.94%; C: 13.17%. Cc1cnc(CN(Cc2ccccc2)CC(O)c2cccs2)cn1 (centres unmarked) gave A: -1.334%; B: -16.83%; C: 3.346%. Result for COc1ccc(-c2ccoc2)cc1CNC1CCCC1 was A: -37.74%; B: 7.602%; C: 5.16%. [H][C@]12CC[C@]([H])(CN(c3nccc(C)n3)C1)N(CCOC)C2=O read A: 20.94%; B: -10.8%.

Cc1cncc(C2CCCN(Cc3ccncc3)C2)n1 (centres unmarked) read A: -23.33%; C: 5.412%. O=C(CCc1ccc(Cl)cc1)N[C@@H]1CC[C@@H](O)[C@@H]1O gave A: -0.9492%; B: 17.86%; C: 9.302%. Cc1ncc(CN(C)Cn2nc(-c3ccccc3)oc2=O)s1 read A: -3.946%; C: 11.33%. For [H][C@]12CCC[C@@]1(COC)CN(C(=O)N1CCCC1)C2 the result was A: 14.97%; B: 19.16%.

Repeated from the top, 5 entries:

Compound	A	B	C
CC(C)N(C)Cc1nnn2c1CN(Cc1cccnc1)CCC2	-	-	8.383%
Cn1cc(C[C@H]2[C@H](O)CCN2Cc2ccncc2)cn1	-	-	13.93%
CCc1cccc(OCCN(C)C(=O)c2ccccc2NCC(=O)O)c1	-9.474%	10.74%	11.2%
Cn1cccc1CN1CCC2(CC1)CC(Oc1cccnc1)C2.O=C(O)C(F)(F)F.O=C(O)C(F)(F)F	-29.66%	21.76%	-
COc1ccc(/C=C/CN2C[C@H]3CC[C@@H]2CN(S(=O)(=O)N(C)C)C3)cc1	-	-	12.03%